Assay results published in the supplement of paper PMC8326762, “A Small Molecule Inhibitor of Pex3–Pex19 Interaction Disrupts Glycosome Biogenesis and Causes Lethality in Trypanosoma brucei” (Frontiers in Cell and Developmental Biology, 2021).
Where a name gives a salt, the structure may show the parent alone. Some of the results follow. The data scatter; read single values as rough.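 Optical density at 600 nm measured yeast growth. Because the two-hybrid strains grew without histidine, growth required Pex3–Pex19 binding. Trypanosome selectivity meant a compound inhibited the trypanosome-pair strain's growth by more than 65% but the human-pair strain's by less than 65%.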

system: Saccharomyces cerevisiae HF7c pdr5Δ; experiment: general growth inhibition of yeast HF7c pdr5Δ in -Leu -Trp medium, relative to DMSO; higher = stronger general growth inhibition; details: 100 µM; 24 h

Question: With CCN(CC)CCNC(=O)c1cc(Cl)c(N)cc1OC [Metoclopramide hydrochloride] as the compound, how does the general growth inhibition read?
Answer: 42%

Question: For C[C@](N)(Cc1ccc(O)c(O)c1)C(=O)O [L-alpha-Methyl DOPA], which general growth inhibition is on record?
Answer: 52.7%

Question: CC(=O)CCCCn1c(=O)c2c(ncn2C)n(C)c1=O [Pentoxifylline] was tested. Which general growth inhibition did it give?
Answer: 48.7%

Question: Which general growth inhibition does the source give for NC(=O)CC[C@H](N)C(=O)O [L-Glutamine] here?
Answer: 32.7%

Question: How did the general growth inhibition turn out when NCC=CC(=O)O (stereo in doubt) [cis-4-Aminocrotonic acid] was run?
Answer: 68%

Question: How did the general growth inhibition turn out when CCCN(CC1CC1)c1nc(C)nc(Nc2c(Cl)cc(Cl)cc2Cl)c1Cl was run?
Answer: 20.5%

Question: With COc1ccc(-c2ccc(=N)n(CCCC(=O)O)n2)cc1 as the compound, how does the general growth inhibition read?
Answer: 53.9%

Question: OCCN1CCN(CC/C=C2/c3ccccc3Sc3ccc(C(F)(F)F)cc32)CC1 [cis-(Z)-Flupenthixol dihydrochloride] was tested. Which general growth inhibition did it give?
Answer: 13.2%

Question: CN(C)CCCN1c2ccccc2Sc2ccccc21 [Promazine hydrochloride] was tested. Which general growth inhibition did it give?
Answer: 25.9%

Question: CO/N=C(\C(=O)N[C@@H]1C(=O)N2C(C(=O)O)=C(CSc3nc(=O)c(O)nn3C)CS[C@H]12)c1csc(N)n1 [Ceftriaxone sodium] was tested. Which general growth inhibition did it give?
Answer: 49.8%

Question: Which general growth inhibition does the source give for Nc1ncn([C@@H]2O[C@H](CO)[C@@H](O)[C@H]2O)c(=O)n1 [5-azacytidine] here?
Answer: 46.2%

Question: How did the general growth inhibition turn out when O=Nc1c(-c2c(O)[nH]c3ccccc23)[nH]c2ccccc12 [Indirubin-3'-oxime] was run?
Answer: 24.6%

Question: For Cc1[nH]c(=O)c(C#N)cc1-c1ccncc1 [Milrinone], which general growth inhibition is on record?
Answer: 49.9%

Question: Nc1ccc(-c2ccc3ccccc3n2)cc1 [BF-170 hydrochloride] was tested. Which general growth inhibition did it give?
Answer: 45.1%

Question: For NC(=O)c1ccccc1 [Benzamide], which general growth inhibition is on record?
Answer: 32.9%

Question: C[C@H]1O[C@@H](n2cc(F)c(=O)[nH]c2=O)[C@H](O)[C@@H]1O [5-fluoro-5'-deoxyuridine] was tested. Which general growth inhibition did it give?
Answer: 37.9%

Question: Which general growth inhibition does the source give for CCOC(=O)C(C)(C)Oc1ccc(Cl)cc1 [Clofibrate] here?
Answer: 42.5%

Question: Which general growth inhibition does the source give for CCN1C(=O)C=CC1=O [N-Ethylmaleimide] here?
Answer: 28.4%

Question: NS(=O)(=O)c1ccc(-n2nc(C(F)(F)F)cc2-c2ccc(Cl)cc2)cc1 was tested. Which general growth inhibition did it give?
Answer: 51.2%

Question: For CC[N+](CC)(CC)CC(=O)Nc1c(C)cccc1C [Lidocaine N-ethyl bromide quaternary salt], which general growth inhibition is on record?
Answer: 54.3%

Question: For CC[C@H]1OC(=O)[C@H](C)[C@@H](O[C@H]2C[C@@](C)(OC)[C@@H](O)[C@H](C)O2)[C@H](C)[C@@H](O[C@@H]2O[C@H](C)C[C@H](N(C)C)[C@H]2O)[C@](C)(O)C[C@@H](C)CN(C)[C@H](C)[C@@H](O)[C@]1(C)O [Azithromycin dihydrate], which general growth inhibition is on record?
Answer: 9.56%

Question: For Oc1cc2c(cc1O)C(c1ccccc1)CNCC2 (racemic), which general growth inhibition is on record?
Answer: 34.7%

Question: How did the general growth inhibition turn out when Nc1ncnc2c1ncn2C1CCCO1 (stereo not drawn) was run?
Answer: 2.76%

Question: With COC(=O)C(N)Cc1ccc(Cl)cc1 (racemic) [DL-p-Chlorophenylalanine methyl ester hydrochloride] as the compound, how does the general growth inhibition read?
Answer: 16.1%

Question: How did the general growth inhibition turn out when O=[N+]([O-])c1cc2nc(O)c(O)nc2cc1[N+](=O)[O-] was run?
Answer: 45.7%

Question: How did the general growth inhibition turn out when N[C@@H](Cc1c[nH]cn1)C(=O)O [L-Histidine hydrochloride] was run?
Answer: 31.7%

Question: With CC(=O)N[C@@H](CS)C(=O)O [N-Acetyl-L-Cysteine] as the compound, how does the general growth inhibition read?
Answer: 15.6%

Question: CCOC(=O)c1ncn2c1CN(C)C(=O)c1cc(F)ccc1-2 [Flumazenil] was tested. Which general growth inhibition did it give?
Answer: 33%

Question: With CCN(CC)CCOc1ccc(Nc2ncc3cc(-c4c(Cl)cccc4Cl)c(=O)n(C)c3n2)cc1 as the compound, how does the general growth inhibition read?
Answer: 26.2%

Question: COc1ccc2cccc(CCNC(C)=O)c2c1 [Agomelatine] was tested. Which general growth inhibition did it give?
Answer: 21.3%

Question: COc1cccc(-c2cc(=O)c3ccccc3o2)c1N was tested. Which general growth inhibition did it give?
Answer: 57%

Question: Which general growth inhibition does the source give for N[C@@H](Cc1ccc(O)c(I)c1)C(=O)O [3-Iodo-L-tyrosine] here?
Answer: 58.1%

Question: Which general growth inhibition does the source give for NC(CCCP(=O)(O)O)C(=O)O (stereo not drawn) [D(-)-2-Amino-5-phosphonopentanoic acid] here?
Answer: 34.4%

Question: Which general growth inhibition does the source give for O=C1/C(=C/c2cccs2)CC/C1=C\c1cccs1 here?
Answer: 43%

Question: How did the general growth inhibition turn out when Fc1ccc([C@@H]2CCNC[C@H]2COc2ccc3c(c2)OCO3)cc1 [Paroxetine hydrochloride hemihydrate (MW = 374.83)] was run?
Answer: 37.6%

Question: For C[N+](C)(C)CCOP(=O)(O)OP(=O)([O-])OC[C@H]1O[C@@H](n2ccc(N)nc2=O)[C@H](O)[C@@H]1O [Cytidine 5'-diphosphocholine sodium salt hydrate], which general growth inhibition is on record?
Answer: 37.1%

Question: How did the general growth inhibition turn out when NO [Hydroxylamine hydrochloride] was run?
Answer: 4.94%

Question: Which general growth inhibition does the source give for CN1[C@@H]2CC[C@H]1CC(OC(=O)c1c[nH]c3ccccc13)C2 (stereo partly drawn) [3-Tropanyl-indole-3-carboxylate hydrochloride] here?
Answer: 44.4%

Question: How did the general growth inhibition turn out when NS(=O)(=O)c1nn2cc(-c3ccccc3)nc2s1 was run?
Answer: 38.3%

system: human PEX3-PEX19 interaction (yeast two-hybrid); experiment: growth inhibition of yeast two-hybrid strain reporting HsPex3-HsPex19 interaction, relative to DMSO; higher = stronger inhibition of human Pex3-Pex19 interaction / growth; details: 100 µM; 24 h; 3-aminotriazole 10 mM

Question: Which growth inhibition does the source give for CCN(CC)CCNC(=O)c1cc(Cl)c(N)cc1OC [Metoclopramide hydrochloride] here?
Answer: 44.1%

Question: With C[C@](N)(Cc1ccc(O)c(O)c1)C(=O)O [L-alpha-Methyl DOPA] as the compound, how does the growth inhibition read?
Answer: 52.4%

Question: For CC(=O)CCCCn1c(=O)c2c(ncn2C)n(C)c1=O [Pentoxifylline], which growth inhibition is on record?
Answer: 55.1%

Question: Which growth inhibition does the source give for NC(=O)CC[C@H](N)C(=O)O [L-Glutamine] here?
Answer: 29%

Question: How did the growth inhibition turn out when NCC=CC(=O)O (stereo in doubt) [cis-4-Aminocrotonic acid] was run?
Answer: 56.2%

Question: CCCN(CC1CC1)c1nc(C)nc(Nc2c(Cl)cc(Cl)cc2Cl)c1Cl was tested. Which growth inhibition did it give?
Answer: 22.2%

Question: With COc1ccc(-c2ccc(=N)n(CCCC(=O)O)n2)cc1 as the compound, how does the growth inhibition read?
Answer: 44.2%

Question: OCCN1CCN(CC/C=C2/c3ccccc3Sc3ccc(C(F)(F)F)cc32)CC1 [cis-(Z)-Flupenthixol dihydrochloride] was tested. Which growth inhibition did it give?
Answer: 26.1%

Question: For CN(C)CCCN1c2ccccc2Sc2ccccc21 [Promazine hydrochloride], which growth inhibition is on record?
Answer: 11.3%

Question: With CO/N=C(\C(=O)N[C@@H]1C(=O)N2C(C(=O)O)=C(CSc3nc(=O)c(O)nn3C)CS[C@H]12)c1csc(N)n1 [Ceftriaxone sodium] as the compound, how does the growth inhibition read?
Answer: 40%

Question: How did the growth inhibition turn out when Nc1ncn([C@@H]2O[C@H](CO)[C@@H](O)[C@H]2O)c(=O)n1 [5-azacytidine] was run?
Answer: 46.2%

Question: With O=Nc1c(-c2c(O)[nH]c3ccccc23)[nH]c2ccccc12 [Indirubin-3'-oxime] as the compound, how does the growth inhibition read?
Answer: 8.42%

Question: Which growth inhibition does the source give for Cc1[nH]c(=O)c(C#N)cc1-c1ccncc1 [Milrinone] here?
Answer: 43.4%

Question: Which growth inhibition does the source give for Nc1ccc(-c2ccc3ccccc3n2)cc1 [BF-170 hydrochloride] here?
Answer: 42.4%

Question: NC(=O)c1ccccc1 [Benzamide] was tested. Which growth inhibition did it give?
Answer: 35.1%

Question: For C[C@H]1O[C@@H](n2cc(F)c(=O)[nH]c2=O)[C@H](O)[C@@H]1O [5-fluoro-5'-deoxyuridine], which growth inhibition is on record?
Answer: 36%

Question: Which growth inhibition does the source give for CCOC(=O)C(C)(C)Oc1ccc(Cl)cc1 [Clofibrate] here?
Answer: 38%

Question: CCN1C(=O)C=CC1=O [N-Ethylmaleimide] was tested. Which growth inhibition did it give?
Answer: 39.2%

Question: NS(=O)(=O)c1ccc(-n2nc(C(F)(F)F)cc2-c2ccc(Cl)cc2)cc1 was tested. Which growth inhibition did it give?
Answer: 57.8%

Question: With CC[N+](CC)(CC)CC(=O)Nc1c(C)cccc1C [Lidocaine N-ethyl bromide quaternary salt] as the compound, how does the growth inhibition read?
Answer: 46.4%

Question: For CC[C@H]1OC(=O)[C@H](C)[C@@H](O[C@H]2C[C@@](C)(OC)[C@@H](O)[C@H](C)O2)[C@H](C)[C@@H](O[C@@H]2O[C@H](C)C[C@H](N(C)C)[C@H]2O)[C@](C)(O)C[C@@H](C)CN(C)[C@H](C)[C@@H](O)[C@]1(C)O [Azithromycin dihydrate], which growth inhibition is on record?
Answer: 7.23%

Question: With Oc1cc2c(cc1O)C(c1ccccc1)CNCC2 (racemic) as the compound, how does the growth inhibition read?
Answer: 33.4%

Question: For Nc1ncnc2c1ncn2C1CCCO1 (stereo not drawn), which growth inhibition is on record?
Answer: -35.7%

Question: With COC(=O)C(N)Cc1ccc(Cl)cc1 (racemic) [DL-p-Chlorophenylalanine methyl ester hydrochloride] as the compound, how does the growth inhibition read?
Answer: 12.7%

Question: Which growth inhibition does the source give for O=[N+]([O-])c1cc2nc(O)c(O)nc2cc1[N+](=O)[O-] here?
Answer: 43%

Question: For N[C@@H](Cc1c[nH]cn1)C(=O)O [L-Histidine hydrochloride], which growth inhibition is on record?
Answer: 35.3%

Question: How did the growth inhibition turn out when CC(=O)N[C@@H](CS)C(=O)O [N-Acetyl-L-Cysteine] was run?
Answer: 1.67%

Question: For CCOC(=O)c1ncn2c1CN(C)C(=O)c1cc(F)ccc1-2 [Flumazenil], which growth inhibition is on record?
Answer: 27.2%

Question: How did the growth inhibition turn out when CCN(CC)CCOc1ccc(Nc2ncc3cc(-c4c(Cl)cccc4Cl)c(=O)n(C)c3n2)cc1 was run?
Answer: 22%

Question: Which growth inhibition does the source give for COc1ccc2cccc(CCNC(C)=O)c2c1 [Agomelatine] here?
Answer: 14.8%

Question: How did the growth inhibition turn out when COc1cccc(-c2cc(=O)c3ccccc3o2)c1N was run?
Answer: 38.6%

Question: Which growth inhibition does the source give for N[C@@H](Cc1ccc(O)c(I)c1)C(=O)O [3-Iodo-L-tyrosine] here?
Answer: 49.8%

Question: How did the growth inhibition turn out when NC(CCCP(=O)(O)O)C(=O)O (stereo not drawn) [D(-)-2-Amino-5-phosphonopentanoic acid] was run?
Answer: 40.7%

Question: With O=C1/C(=C/c2cccs2)CC/C1=C\c1cccs1 as the compound, how does the growth inhibition read?
Answer: 35.8%

Question: With Fc1ccc([C@@H]2CCNC[C@H]2COc2ccc3c(c2)OCO3)cc1 [Paroxetine hydrochloride hemihydrate (MW = 374.83)] as the compound, how does the growth inhibition read?
Answer: 38.2%

Question: C[N+](C)(C)CCOP(=O)(O)OP(=O)([O-])OC[C@H]1O[C@@H](n2ccc(N)nc2=O)[C@H](O)[C@@H]1O [Cytidine 5'-diphosphocholine sodium salt hydrate] was tested. Which growth inhibition did it give?
Answer: 38%

Question: For NO [Hydroxylamine hydrochloride], which growth inhibition is on record?
Answer: 5.32%

Question: How did the growth inhibition turn out when CN1[C@@H]2CC[C@H]1CC(OC(=O)c1c[nH]c3ccccc13)C2 (stereo partly drawn) [3-Tropanyl-indole-3-carboxylate hydrochloride] was run?
Answer: 40.3%

Question: How did the growth inhibition turn out when NS(=O)(=O)c1nn2cc(-c3ccccc3)nc2s1 was run?
Answer: 36.9%
